Laboratory results from PubChem BioAssay AID588590 (National Center for Advancing Translational Sciences (NCATS), 2011).
The whole screen tested about 390,000 compounds, of which about 4,000 (1%) were called active. The inconclusive results got no clear call from the source; some entries with a clear call stand among them for comparison. Calls come from the whole dose curve; as a rule, active = well fitted inhibition curve with a large enough effect; inconclusive = small, poorly fitted or top-dose-only effect, or another doubt; inactive = no such curve, though single readings can be large or run the other way. Where the call is inconclusive, the potency comes from a doubtful curve fit.

The chains behind the UniProt entries cited, without tags or fusion partners. Where a name states a change or a piece, a line headed by the entry shows the natural chain unless it says otherwise.
UniProt Q9UNA4: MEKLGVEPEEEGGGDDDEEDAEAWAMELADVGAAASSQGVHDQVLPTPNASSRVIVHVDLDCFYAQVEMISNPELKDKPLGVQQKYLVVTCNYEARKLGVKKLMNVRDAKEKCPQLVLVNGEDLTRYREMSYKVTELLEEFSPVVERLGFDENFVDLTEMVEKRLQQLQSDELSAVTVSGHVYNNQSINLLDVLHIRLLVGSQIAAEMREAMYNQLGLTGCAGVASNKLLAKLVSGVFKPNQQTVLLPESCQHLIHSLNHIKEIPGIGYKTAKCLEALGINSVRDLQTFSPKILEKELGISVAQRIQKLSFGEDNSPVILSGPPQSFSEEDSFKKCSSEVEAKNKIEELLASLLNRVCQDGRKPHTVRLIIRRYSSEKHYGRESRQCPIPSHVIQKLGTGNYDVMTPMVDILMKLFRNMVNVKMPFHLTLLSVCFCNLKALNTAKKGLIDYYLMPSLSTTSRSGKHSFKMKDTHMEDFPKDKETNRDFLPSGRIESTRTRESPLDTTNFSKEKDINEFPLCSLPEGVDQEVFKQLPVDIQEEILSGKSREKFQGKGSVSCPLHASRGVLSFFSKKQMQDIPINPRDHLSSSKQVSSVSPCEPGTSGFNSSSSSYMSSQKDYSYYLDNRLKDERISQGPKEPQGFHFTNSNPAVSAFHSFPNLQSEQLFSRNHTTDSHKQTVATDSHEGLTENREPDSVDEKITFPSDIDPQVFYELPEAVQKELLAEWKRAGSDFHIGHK

Target: DNA polymerase iota (Homo sapiens) (UniProt Q9UNA4)
Test: qHTS for Inhibitors of Polymerase Iota
Settings: Pol iota fluorescent replication assay, 10 min; series mostly up to 115 µM
In short: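 Pol iota at 10 nM preincubated 15 min with compounds at room temperature; reaction started with fluorescent substrate, 50 nM final. Fluorescence read kinetically at 0 and 10 min; buffer-only wells as negative control.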
Potency is the fitted concentration of half-maximal effect.

Potency, active:
NS(=O)(=O)c1ccc(-c2ccc(/C=C3\NC(=S)NC3=O)o2)cc1 10 µM, COCCSc1ccccc1C(=O)Nc1ccc(Cl)cc1 10 µM, CCc1ccccc1NC(=O)c1ccc(Cn2nc(N3CCN(c4ccccc4)CC3)ccc2=O)o1 79.4 µM, Cc1ccc(NC(=O)Nc2cn(C)c(=O)c3ccccc23)c(Cl)c1 70.8 µM

Potency, inactive:
Cc1cc2oc(=O)cc(CN3CCCCC3C)c2cc1C(C)C (centres undefined), CCn1cc(C(=O)NCCN(CC(C)C)CC(C)C)c(=O)c2cc(S(=O)(=O)N(C)C3CCCCC3)ccc21, Cc1cccc(CCNC(=O)c2cc3c(=O)[nH]c4ccc(C)cc4c3s2)c1, CC(C)Oc1ccc(C(CC(=O)NCc2ccco2)c2ccccc2)cc1 (centres undefined), CC(OC(=O)c1cccc(-n2cnnn2)c1)C(=O)Nc1ccc(F)c(F)c1F (centres undefined), COc1ccc(NC(=O)c2c(NCc3ccc(OC)c(OC)c3OC)sc3c2CCC3)c(OC)c1, Cc1ccc(/C=C/C(=O)N2CCC(c3nc4ccccc4o3)CC2)cc1, Cc1ccc(-c2nc(N3CCN(S(=O)(=O)c4ccc(F)cc4)CC3)c3ccc(Cl)cc3n2)cc1, Cc1ccc(NC(=O)Cn2cc(C(=O)c3ccco3)c3ccccc32)cc1C, CCOCCCNc1nc(=S)[nH]c2cc(OC)c(OC)cc12, CCCCN(C)S(=O)(=O)c1ccc(NC2=NS(=O)(=O)c3ccccc32)cc1, COc1ccc(C)cc1N1CC(C(=O)Nc2ccccc2C(=O)NC2CC2)CC1=O (centres undefined), COC(=O)c1ccc2c(=O)n(CCCCCC(=O)N3CCN(c4cc(C)ccc4C)CC3)c(=O)[nH]c2c1, O=C(NNC(=O)c1ccccc1C(F)(F)F)c1csc(N2CCOCC2)n1

Potency, inconclusive:
COc1ccccc1CCNC(=O)CCn1c(=O)oc2ccccc21 17.8 µM [inhibitor, single point], O=C1C=C(c2ccc3c(c2)OCCO3)C[C@@H](c2ccc(F)cc2)C1 70.8 µM [inhibitor, partial curve], CN(CCc1ccccn1)C(=O)CCC1CCCN(C(=O)NC2CCCCC2)C1 (centres undefined) 100 µM [inhibitor, single point], CCOC(=O)C1=C(C)n2c(s/c(=C/c3cccc([N+](=O)[O-])c3)c2=O)=NC1c1ccc(O)c(OC)c1 (centres undefined) 10 µM [inhibitor, full curve, poor fit], CCCCN1C(=O)C(O)(CC(=O)c2ccccn2)c2ccccc21 (centres undefined) 89.1 µM [inhibitor, partial curve, poor fit], COc1ccc(NC(=O)c2nnn(CC(=O)Nc3cccc(C)c3C)c2N)c(OC)c1 89.1 µM [inhibitor, single point], COc1cc(/C=C2\SC(=S)N(C(Cc3ccccc3)C(=O)O)C2=O)ccc1O (centres undefined) 14.1 µM [inhibitor, full curve, poor fit], N/C(=C\C(=O)c1cc(Cl)ccc1O)C(Cl)(Cl)Cl 35.5 µM [inhibitor, partial curve, poor fit], Cc1ccc(N/N=C/c2c(C)c(C#N)c(=O)n(C)c2O)cc1C 39.8 µM [inhibitor, single point], CSc1ncc(Cl)c(C(=O)C(C#N)c2nc3c(C)cc(C)cc3c(=O)[nH]2)n1 (centres undefined) 20 µM [inhibitor, full curve, poor fit], CCCCOc1ccccc1Cn1c(=O)sc2ccccc21 89.1 µM [inhibitor, single point], CCN(CCO)c1nc(SC)nc2c1sc1nc(-c3ccco3)c3c(c12)CCC3 89.1 µM [inhibitor, partial curve, poor fit], Cc1nn(CC(=O)NCCc2ccccc2)c(=O)c2nn(-c3ccccc3)c(C)c12 50.1 µM [inhibitor, partial curve], CC[C@H](C)[C@@H](C(=O)NCCCCCCCCCCC(=O)N1CCNCC1)n1cc(CCCCN=C(N)N)nn1 11.2 µM [inhibitor, partial curve, poor fit], COc1ccc(CCNC(=O)c2cn3ccc(C)cc3n2)cc1OC 12.6 µM [inhibitor, partial curve, poor fit], O=C(/C=C/c1cccnc1)c1ccc(F)c(F)c1 22.4 µM [inhibitor, full curve], Cc1ccccc1N1CC(=O)Nc2c(oc3nc(-c4ccccc4)cc(C)c23)C1=O 100 µM [inhibitor, single point], Fc1ccc(CSc2nncn3c2cc2occc23)c(Cl)c1 89.1 µM [inhibitor, partial curve, poor fit], COc1ccc2c(c1)C(c1ccccc1)=NNC(c1ccco1)=N2 79.4 µM [inhibitor, partial curve, poor fit], CC1CCN(C(=O)c2ccc3c(c2)NC(=O)CN3)CC1 22.4 µM [inhibitor, full curve], O=C(O)CCc1ccc(-c2ccc(F)cc2)n1CC(=O)O 1.12 µM [inhibitor, full curve, poor fit], CSCC(=O)N1CCC(n2nccc2NC(=O)c2ccc3c(c2)OCO3)CC1 17.8 µM [inhibitor, full curve, poor fit], N#Cc1cnc(NN)nc1 20 µM [inhibitor, full curve, poor fit], CCCCCOc1ccccc1CN1C(=O)C(=O)c2cc(C)ccc21 25.1 µM [inhibitor, full curve, poor fit], COc1ccc(NC(=O)CC2C(=O)OCC3CCCCN32)cc1Cl (centres undefined) 89.1 µM [inhibitor, single point], COc1ccccc1NC(=O)CSc1ccc(-c2ccco2)nn1 17.8 µM [inhibitor, partial curve, poor fit], O=C(CCl)N(O)c1ccc(C=Cc2ccccc2)cc1 79.4 µM [inhibitor, single point], C=CCc1cccc2cc(C(=O)Nc3ccccc3C(=O)O)c(=O)oc12 63.1 µM [inhibitor, partial curve, poor fit], CCc1noc(C)c1C(=O)OCC(=O)N(CCOC)c1c(N)n(Cc2ccccc2)c(=O)[nH]c1=O 89.1 µM [inhibitor, single point], CCOC(=O)c1sc(NC(=O)c2cc3n(n2)C(C(F)(F)F)CC(c2ccccc2)N3)c(C(=O)OCC)c1C (centres undefined) 100 µM [inhibitor, partial curve, poor fit], O=C(Nc1sc2c(c1C(=O)O)CCCC2)c1cccs1 3.16 µM [inhibitor, full curve, poor fit], CC(/C=N/n1c(-c2ccco2)n[nH]c1=S)=C\c1ccco1 17.8 µM [inhibitor, full curve, poor fit], O=C1NC(=O)c2cc(Nc3ccccc3)c(Nc3ccccc3)cc21 44.7 µM [inhibitor, partial curve, poor fit], Cn1ncc(Cl)c(Oc2ccccc2)c1=O 89.1 µM [inhibitor, single point], COc1ccc(C(=O)NC(=S)Nc2cccnc2)cc1Cl 79.4 µM [inhibitor, partial curve], CN(Cc1ccccc1)C(=O)c1ccc([N+](=O)[O-])o1 6.31 µM [inhibitor, partial curve, poor fit], CCN(CC)c1ccc(C=C2C(=O)OC(C)(C(C)(C)C)OC2=O)cc1 (centres undefined) 28.2 µM [inhibitor, single point], Cc1csc(NC(=O)CSc2nnnn2C)n1 0.794 µM [inhibitor, full curve, poor fit], Cc1c(Cl)cnc(NC(=O)COC(=O)c2cccc(S(=O)(=O)N3CCc4ccccc4C3)c2)c1Cl 39.8 µM [inhibitor, partial curve, poor fit], O=C(O)c1nn(CC(=O)N(C2CCCCC2)C2CCCCC2)c(=O)c2ccccc12 100 µM [inhibitor, single point], COC(=O)Cn1c(=NC(=O)C(C)(C)C)sc2c(C)cc(C)cc21 3.16 µM [inhibitor, full curve, poor fit], O=C(CCS(=O)(=O)c1ccc(F)cc1)Nc1nc(-c2ccccn2)cs1 79.4 µM [inhibitor, single point], Oc1cc2c(cc1C(c1ccc(Cl)c(Cl)c1)N1CCCC1)OCO2 (centres undefined) 25.1 µM [inhibitor, single point], COc1ccc(CNC(=O)C(Cc2ccccc2)NS(=O)(=O)c2ccc3c(c2)CCN3C(C)=O)cc1 (centres undefined) 70.8 µM [inhibitor, partial curve, poor fit], O=C(O)/C(=C\c1ccc(Br)cc1)c1ccc(S(=O)(=O)N2CCCCC2)s1 31.6 µM [inhibitor, partial curve, poor fit], CCOC(=O)c1cc2c(=O)n3ccccc3nc2n(Cc2ccco2)c1=NC(=O)c1cccc(C)c1 56.2 µM [inhibitor, partial curve, poor fit]
